Record: PubChem BioAssay AID686938 (Drosophila RNAi Screening Center, 2013)
Purpose: 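Fly genes required for calcium entry once internal stores are emptied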 (primary screen). System: Drosophila S2R+ cells. Reagent: long dsRNA against Drosophila genes, about 0.25 µg dsRNA per well, roughly 10,000 cells. Duration: 5 days of knock-down before the calcium assay. Conditions: thapsigargin (SERCA pump blocker) to empty calcium stores; entry signal taken 4 min after adding it. Measured: 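Per-well fluo-4 fluorescence in two replicates, unnormalised, measured in resting cells and 4 min after store depletion by the SERCA blocker thapsigargin; ratio of the two present in few wells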. Direction: calcium entry signal: higher = stronger calcium signal after store depletion; resting calcium signal: higher = higher resting calcium signal. Hit rule: 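Hit if the duplicate-averaged plate z-score for entry over resting signal is under −3; wells with weak total dye signal (Fmax z < −2) or more than 5 off-targets removed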. Calls: active = strongly reduced calcium entry; inactive = no strong reduction.
In all, the deposit lists about 23,000 reagents; below is an unselected part of those with a known target gene and a result. In the full data, 75 (0.33%) are marked active. 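Raw plate signals without normalisation; calls rest on plate z-scores that were not deposited; ratio present for only 364 wells.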 The numbers tell different reagents against one gene apart. Not stated in the record: the dose of the treatment.

CG10510 | calcium entry signal, replicate 1 (fluorescence units): 4.45e7; calcium entry signal, replicate 2 (fluorescence units): 4.55e7; resting calcium signal, replicate 1 (fluorescence units): 1.94e7; resting calcium signal, replicate 2 (fluorescence units): 2.94e7; outcome: inactive
Rab32 #1 | calcium entry signal, replicate 1 (fluorescence units): 2.29e7; calcium entry signal, replicate 2 (fluorescence units): 3.54e7; resting calcium signal, replicate 1 (fluorescence units): 1.23e7; resting calcium signal, replicate 2 (fluorescence units): 1.62e7; outcome: inactive
Rab32 #2 | calcium entry signal, replicate 1 (fluorescence units): 2.63e7; calcium entry signal, replicate 2 (fluorescence units): 1.78e7; resting calcium signal, replicate 1 (fluorescence units): 1.10e7; resting calcium signal, replicate 2 (fluorescence units): 8.86e6; outcome: inactive
Sox15 (Sox box protein 15) | calcium entry signal, replicate 1 (fluorescence units): 3.71e7; calcium entry signal, replicate 2 (fluorescence units): 2.95e7; resting calcium signal, replicate 1 (fluorescence units): 2.04e7; resting calcium signal, replicate 2 (fluorescence units): 1.53e7; outcome: inactive
CG32599 | calcium entry signal, replicate 1 (fluorescence units): 3.34e7; calcium entry signal, replicate 2 (fluorescence units): 3.34e7; resting calcium signal, replicate 1 (fluorescence units): 1.53e7; resting calcium signal, replicate 2 (fluorescence units): 1.61e7; outcome: inactive
opa (odd paired) #1 | calcium entry signal, replicate 1 (fluorescence units): 2.47e7; calcium entry signal, replicate 2 (fluorescence units): 4.94e7; resting calcium signal, replicate 1 (fluorescence units): 1.33e7; resting calcium signal, replicate 2 (fluorescence units): 2.18e7; outcome: inactive
opa (odd paired) #2 | calcium entry signal, replicate 1 (fluorescence units): 4.35e7; calcium entry signal, replicate 2 (fluorescence units): 3.54e7; resting calcium signal, replicate 1 (fluorescence units): 2.53e7; resting calcium signal, replicate 2 (fluorescence units): 1.60e7; outcome: inactive
opa (odd paired) #3 | calcium entry signal, replicate 1 (fluorescence units): 3.11e7; calcium entry signal, replicate 2 (fluorescence units): 3.55e7; resting calcium signal, replicate 1 (fluorescence units): 1.79e7; resting calcium signal, replicate 2 (fluorescence units): 1.80e7; outcome: inactive
tay (tay bridge) | calcium entry signal, replicate 1 (fluorescence units): 3.68e7; calcium entry signal, replicate 2 (fluorescence units): 3.81e7; resting calcium signal, replicate 1 (fluorescence units): 1.69e7; resting calcium signal, replicate 2 (fluorescence units): 1.77e7; outcome: inactive
Drsl4 (Drosomycin-like 4) | calcium entry signal, replicate 1 (fluorescence units): 3.05e7; calcium entry signal, replicate 2 (fluorescence units): 4.33e7; resting calcium signal, replicate 1 (fluorescence units): 1.49e7; resting calcium signal, replicate 2 (fluorescence units): 1.67e7; outcome: inactive
Cp110 (Centriolar coiled coil protein 110kDa) #1 | calcium entry signal, replicate 1 (fluorescence units): 3.54e7; calcium entry signal, replicate 2 (fluorescence units): 4.13e7; resting calcium signal, replicate 1 (fluorescence units): 1.67e7; resting calcium signal, replicate 2 (fluorescence units): 1.86e7; outcome: inactive
Cp110 (Centriolar coiled coil protein 110kDa) #2 | calcium entry signal, replicate 1 (fluorescence units): 2.18e7; calcium entry signal, replicate 2 (fluorescence units): 2.61e7; resting calcium signal, replicate 1 (fluorescence units): 1.23e7; resting calcium signal, replicate 2 (fluorescence units): 1.27e7; outcome: inactive
CR9337 (pseudo) | calcium entry signal, replicate 1 (fluorescence units): 3.13e7; resting calcium signal, replicate 1 (fluorescence units): 1.59e7; outcome: inactive
lncRNA:CR43435 (long non-coding RNA:CR43435) | calcium entry signal, replicate 1 (fluorescence units): 2.29e7; calcium entry signal, replicate 2 (fluorescence units): 3.25e7; resting calcium signal, replicate 1 (fluorescence units): 1.18e7; resting calcium signal, replicate 2 (fluorescence units): 1.46e7; outcome: inactive
Naa80 (N(alpha)-acetyltransferase 80) | calcium entry signal, replicate 1 (fluorescence units): 3.24e7; calcium entry signal, replicate 2 (fluorescence units): 4.04e7; resting calcium signal, replicate 1 (fluorescence units): 1.63e7; resting calcium signal, replicate 2 (fluorescence units): 1.99e7; outcome: inactive
SmF (Small ribonucleoprotein particle protein SmF) | calcium entry signal, replicate 1 (fluorescence units): 1.60e7; calcium entry signal, replicate 2 (fluorescence units): 2.11e7; resting calcium signal, replicate 1 (fluorescence units): 1.13e7; resting calcium signal, replicate 2 (fluorescence units): 1.31e7; outcome: inactive
alpha-Cat (alpha Catenin) | calcium entry signal, replicate 1 (fluorescence units): 4.29e7; calcium entry signal, replicate 2 (fluorescence units): 4.41e7; resting calcium signal, replicate 1 (fluorescence units): 1.99e7; resting calcium signal, replicate 2 (fluorescence units): 2.13e7; outcome: inactive
Xpc (Xeroderma pigmentosum, complementation group C) | calcium entry signal, replicate 1 (fluorescence units): 2.59e7; calcium entry signal, replicate 2 (fluorescence units): 2.17e7; resting calcium signal, replicate 1 (fluorescence units): 1.12e7; resting calcium signal, replicate 2 (fluorescence units): 1.05e7; outcome: inactive
Ca-beta (Ca2+-channel-protein-beta-subunit) #1 | calcium entry signal, replicate 1 (fluorescence units): 3.87e7; calcium entry signal, replicate 2 (fluorescence units): 6.08e7; resting calcium signal, replicate 1 (fluorescence units): 1.96e7; resting calcium signal, replicate 2 (fluorescence units): 2.46e7; outcome: inactive
Ca-beta (Ca2+-channel-protein-beta-subunit) #2 | calcium entry signal, replicate 1 (fluorescence units): 3.77e7; calcium entry signal, replicate 2 (fluorescence units): 5.20e7; resting calcium signal, replicate 1 (fluorescence units): 1.90e7; resting calcium signal, replicate 2 (fluorescence units): 2.01e7; outcome: inactive
Ca-beta (Ca2+-channel-protein-beta-subunit) #3 | calcium entry signal, replicate 1 (fluorescence units): 3.50e7; calcium entry signal, replicate 2 (fluorescence units): 7.34e7; resting calcium signal, replicate 1 (fluorescence units): 1.80e7; resting calcium signal, replicate 2 (fluorescence units): 2.62e7; outcome: inactive
Ca-beta (Ca2+-channel-protein-beta-subunit) #4 | calcium entry signal, replicate 1 (fluorescence units): 4.31e7; calcium entry signal, replicate 2 (fluorescence units): 3.62e7; resting calcium signal, replicate 1 (fluorescence units): 2.57e7; resting calcium signal, replicate 2 (fluorescence units): 1.75e7; outcome: inactive

No new results follow: entries from further up.
Rab32 #2 | calcium entry signal, replicate 1 (fluorescence units): 2.63e7; calcium entry signal, replicate 2 (fluorescence units): 1.78e7; resting calcium signal, replicate 1 (fluorescence units): 1.10e7; resting calcium signal, replicate 2 (fluorescence units): 8.86e6; outcome: inactive
Sox15 (Sox box protein 15) | calcium entry signal, replicate 1 (fluorescence units): 3.71e7; calcium entry signal, replicate 2 (fluorescence units): 2.95e7; resting calcium signal, replicate 1 (fluorescence units): 2.04e7; resting calcium signal, replicate 2 (fluorescence units): 1.53e7; outcome: inactive
